Test results reported in PMC9469108.

By UniProt entry, the sequences of proteins in these tests, tags left out.
UniProt Q39255: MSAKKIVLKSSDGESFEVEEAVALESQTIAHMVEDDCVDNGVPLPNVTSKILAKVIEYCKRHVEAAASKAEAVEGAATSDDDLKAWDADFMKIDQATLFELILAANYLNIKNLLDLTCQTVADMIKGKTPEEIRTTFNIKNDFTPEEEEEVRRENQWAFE

Molecular target: ARABIDOPSIS SKP1-LIKE1 (ASK1) with a C-terminal FLAG tag (Arabidopsis thaliana) (UniProt Q39255)
Experiment: affinity purification with mass spectrometry; Co-IP with an anti-FLAG antibody from lysates of inflorescences (closed buds and young flowers) of ask1-1 plants complemented with ASK1:ASK1-FLAG; SDS-PAGE gel slices, trypsin digestion, LC-MS/MS; four independent experiments

B1: SKIP22 (protein, UniProt Q9ZUB8 1-475)
chain: MKLRLRHHETRETLKLELADADTLHDLRRRINPTVPSSVHLSLNRKDELITPSPEDTLRSLGLISGDLIYFSLEAGESSNWKLRDSETVASQSESNQTSVHDSIGFAEVDVVPDQAKSNPNTSVEDPEGDISGMEGPEPMDVEQLDMELAAAGSKRLSEPFFLKNILLEKSGDTSELTTLALSVHAVMLESGFVLLNHGSDKFNFSKELLTVSLRYTLPELIKSKDTNTIESVSVKFQNLGPVVVVYGTVGGSSGRVHMNLDKRRFVPVIDLVMDTSTSDEEGSSSIYREVFMFWRMVKDRLVIPLLIGICDKAGLEPPPCLMRLPTELKLKILELLPGVSIGNMACVCTEMRYLASDNDLWKQKCLEEVNNFVVTEAGDSVNWKARFATFWRQKQLAAASDTFWRQNQLGRRNISTGRSGIRFPRIIGDPPFTWFNGDRMHGSIGIHPGQSARGLGRRTWGQLFTPRCNLGGLN
binding: binds

Results are given in words; binding and its absence hold for the method and conditions named. In cells and extracts the contact can be indirect. Here binding means that the protein was enriched with, or labelled near, the bait; the list need not be complete.
